# From patent US10035989B2, “Method for producing polyunsaturated fatty acids in transgenic plants” (BASF Plant Science GmbH, priority 2004, dated 2018)
# At least one compound was matched to its structure with a doubt left.
# System: PtELO6 (Δ6-elongase)
# Test: Substrate specificity of PtELO6 in yeast (feeding, GLC of FAMEs)
# Type: cell-based, Phaeodactylum tricornutum
# Conditions: fatty acids fed to yeast pYES2-PtELO6
smiles,measurement,value
"CC/C=C\C/C=C\C/C=C\C/C=C\C/C=C\CCCC(=O)O [20:5^Δ5,8,11,14,17, eicosapentaenoic acid]",conversion by PtELO6,not converted
